Experimental data reported in PubChem BioAssay AID624297 (National Center for Advancing Translational Sciences (NCATS), 2012).
Screen size: about 340,000 compounds; about 6,200 (1.8%) were called active. The inconclusive results got no clear call from the source; some entries with a clear call stand among them for comparison. Calls come from the whole dose curve; as a rule, active = well fitted activation curve with a large enough effect; inconclusive = small, poorly fitted or top-dose-only effect; inactive = no such curve, though single readings can be large or run the other way. Potencies beside an inconclusive call are fits to weak or partial responses and may not hold up.

Test: A quantitative high throughput screen for small molecules that induce DNA re-replication in SW480 colon adenocarcinoma cells. For re-replication activation: % of control where 0% means no effect. Note: nearly all actives have a fitted effect of over 55% in size.
Details: Hoechst DNA content imaging, 48 h; re-replication activation: at 46.1 µM (top of the series) unless noted
Summary of the method: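 SW480 cells exposed to compounds for 48 hr at 37 C, 5% CO2, then Hoechst-stained 40 min. Nuclear DNA content imaged by fluorescence scanning (405 nm excitation, 500-530 nm emission); re-replication scored as increased high-intensity nuclei.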
Potency is the fitted concentration of half-maximal effect.

Row | SMILES | Potency | re-replication activation
1 | COc1ccc(N(C(=O)CCl)C(C(=O)NC2CCCCC2)c2cccnc2)cc1 (configuration not stated) | inconclusive: 3.26 µM [activator, partial curve, poor fit] | 
2 | COc1ccc(CCNS(=O)(=O)c2ccc(S(=O)(=O)N3CCCC3)cc2)cc1OC | inconclusive: 5.8 µM [activator, single point] | 
3 | O=C(NNc1ncnc2ccccc12)c1cccc(Cl)c1 |  | inactive: -4.04%
4 | Cc1cccc(COCC(Cc2ccccc2)N2CCN(C(=O)c3ccc(Cl)c(Cl)c3)CCC2=O)c1 (configuration not stated) | inconclusive: 13 µM [activator, partial curve] | 
5 | COc1ccc(-n2c(COc3cccc(C)c3)n[nH]c2=S)cc1 |  | inactive: 3.66%
6 | N=c1c(C(=O)NCc2ccc3c(c2)OCO3)cc2c(=O)n3ccccc3nc2n1CC1CCCO1 (configuration not stated) | active: 23.1 µM | 
7 | Cc1cc(-n2c(C)cc(C(=O)CN3C(=O)NC4(CCCCCC4)C3=O)c2C)no1 | inconclusive: 29.1 µM [activator, single point] | 
8 | Nc1cc(OC(=O)c2c(F)cccc2Cl)nn1S(=O)(=O)c1ccccc1 |  | inactive: -17.3%
9 | COc1ccc(CS(=O)(=O)/C(Cl)=C(/Cl)C(=O)Nc2ccc(OC)nc2)cc1 | active: 0.82 µM | 
10 | CN(C(=O)CSc1nnc(Nc2ccccc2)s1)C1CCS(=O)(=O)C1 (configuration not stated) | inconclusive: 0.0046 µM [activator, full curve, poor fit] | 
11 | Cn1nc(C(=O)NCc2ccccc2Cl)c2c1-c1ccccc1S(=O)(=O)C2 | inconclusive: 29.1 µM [activator, single point] | 
12 | C/C=C\C=C/C(=O)Nc1cccc(C2=NOC3(C2)C[C@@H](C(N)=O)N(C(=O)COc2ccc(Cl)cc2)C3)c1 (some centres not stated) | inconclusive: 29.1 µM [activator, single point] | 
13 | Cc1ccc2cc(CCNC(=O)C(=O)c3c[nH]c4ccccc34)c(=O)[nH]c2c1 | inconclusive: 18.4 µM [activator, single point] | 
14 | Cc1cccc(CN2C(=O)[C@H]3Cc4c([nH]c5ccccc45)C(C)(C)N3C2=O)c1 | inconclusive: 29.1 µM [activator, single point] | 
15 | CC1C(=O)NN=C1C(=O)N/N=C\C(Br)=C\c1ccccc1 (configuration not stated) | inconclusive: 29.1 µM [activator, single point] | 
16 | CC(=O)OCC1=C(C(=O)O)N2C(=O)C(NC(=O)C(C)Cn3cc(Cl)cn3)C2SC1 (configuration not stated) | inconclusive: 0.184 µM [activator, full curve, poor fit] | 
17 | COC(=O)C(C)N(C(=O)c1cccc2ccccc12)c1c(C)cccc1C (configuration not stated) | inconclusive: 18.4 µM [activator, partial curve] | 

Reprinted from the entries so far, two compounds:
Row | SMILES | Potency | re-replication activation
1 | COc1ccc(N(C(=O)CCl)C(C(=O)NC2CCCCC2)c2cccnc2)cc1 (configuration not stated) | inconclusive: 3.26 µM [activator, partial curve, poor fit] | 
2 | COc1ccc(CCNS(=O)(=O)c2ccc(S(=O)(=O)N3CCCC3)cc2)cc1OC | inconclusive: 5.8 µM [activator, single point] | 
